Results taken from the supplement of paper PMC10849652.
Some of the results follow. Residues, ends and D or L forms follow the SMILES beside them. *: point of attachment. Cbz = O=C(OCc1ccccc1)*

By UniProt entry, the sequences of proteins in these tests, tags left out. Where a name states a change or a piece, a line headed by the entry shows the natural chain unless it says otherwise.
UniProt O60232: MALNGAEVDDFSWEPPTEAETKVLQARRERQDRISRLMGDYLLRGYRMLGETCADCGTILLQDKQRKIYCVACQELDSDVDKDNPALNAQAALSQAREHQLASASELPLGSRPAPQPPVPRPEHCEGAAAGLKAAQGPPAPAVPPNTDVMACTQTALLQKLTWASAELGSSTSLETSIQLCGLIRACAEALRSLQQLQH
UniProt Q8ND25: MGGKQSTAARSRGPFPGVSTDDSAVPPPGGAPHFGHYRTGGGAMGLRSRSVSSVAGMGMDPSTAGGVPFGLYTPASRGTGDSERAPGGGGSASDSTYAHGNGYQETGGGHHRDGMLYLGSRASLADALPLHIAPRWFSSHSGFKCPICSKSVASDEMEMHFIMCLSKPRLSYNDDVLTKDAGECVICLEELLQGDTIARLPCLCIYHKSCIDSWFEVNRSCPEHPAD
UniProt Q8NHG8: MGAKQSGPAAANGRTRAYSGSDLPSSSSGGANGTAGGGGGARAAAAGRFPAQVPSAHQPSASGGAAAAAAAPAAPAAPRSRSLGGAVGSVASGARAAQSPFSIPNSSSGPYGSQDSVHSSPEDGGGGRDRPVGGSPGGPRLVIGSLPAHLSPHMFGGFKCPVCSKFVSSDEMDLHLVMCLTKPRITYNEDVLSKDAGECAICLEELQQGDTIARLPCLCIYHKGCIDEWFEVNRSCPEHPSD
UniProt O75312: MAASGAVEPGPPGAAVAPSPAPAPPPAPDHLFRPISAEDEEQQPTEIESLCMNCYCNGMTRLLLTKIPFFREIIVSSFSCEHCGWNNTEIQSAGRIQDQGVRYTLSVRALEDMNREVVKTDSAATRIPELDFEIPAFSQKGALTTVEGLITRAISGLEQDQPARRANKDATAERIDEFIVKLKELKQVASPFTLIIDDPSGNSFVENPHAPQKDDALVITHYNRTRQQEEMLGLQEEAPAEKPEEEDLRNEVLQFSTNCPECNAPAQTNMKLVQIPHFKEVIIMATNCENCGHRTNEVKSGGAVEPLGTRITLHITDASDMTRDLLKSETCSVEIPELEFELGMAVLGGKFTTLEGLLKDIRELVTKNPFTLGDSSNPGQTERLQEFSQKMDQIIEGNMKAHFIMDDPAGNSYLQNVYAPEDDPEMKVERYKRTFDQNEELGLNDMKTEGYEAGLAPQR
UniProt O95218: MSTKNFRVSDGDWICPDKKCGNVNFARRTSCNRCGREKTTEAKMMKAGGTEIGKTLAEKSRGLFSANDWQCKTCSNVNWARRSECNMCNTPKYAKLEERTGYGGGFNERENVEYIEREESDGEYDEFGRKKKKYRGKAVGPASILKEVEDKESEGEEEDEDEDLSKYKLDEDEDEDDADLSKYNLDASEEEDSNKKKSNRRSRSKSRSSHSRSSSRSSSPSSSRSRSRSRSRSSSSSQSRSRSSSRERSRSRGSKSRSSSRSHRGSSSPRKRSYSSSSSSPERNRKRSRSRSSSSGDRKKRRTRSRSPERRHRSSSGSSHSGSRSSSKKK
UniProt Q16670: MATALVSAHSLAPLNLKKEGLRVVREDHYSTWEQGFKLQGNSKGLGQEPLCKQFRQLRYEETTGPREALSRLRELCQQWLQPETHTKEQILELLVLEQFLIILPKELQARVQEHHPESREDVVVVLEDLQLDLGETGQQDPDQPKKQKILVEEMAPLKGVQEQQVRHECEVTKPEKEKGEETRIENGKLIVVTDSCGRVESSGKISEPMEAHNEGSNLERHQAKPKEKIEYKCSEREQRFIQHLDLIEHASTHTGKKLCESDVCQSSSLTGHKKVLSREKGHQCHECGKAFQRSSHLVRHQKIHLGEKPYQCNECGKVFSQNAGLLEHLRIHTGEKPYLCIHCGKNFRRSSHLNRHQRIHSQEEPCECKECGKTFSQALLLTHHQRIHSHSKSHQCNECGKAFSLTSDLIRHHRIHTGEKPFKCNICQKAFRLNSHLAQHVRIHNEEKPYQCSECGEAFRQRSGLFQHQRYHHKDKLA
UniProt Q19AV6: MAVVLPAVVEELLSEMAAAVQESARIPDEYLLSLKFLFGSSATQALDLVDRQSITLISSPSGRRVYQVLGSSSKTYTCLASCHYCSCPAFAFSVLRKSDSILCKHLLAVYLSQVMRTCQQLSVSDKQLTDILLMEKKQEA
UniProt O43264: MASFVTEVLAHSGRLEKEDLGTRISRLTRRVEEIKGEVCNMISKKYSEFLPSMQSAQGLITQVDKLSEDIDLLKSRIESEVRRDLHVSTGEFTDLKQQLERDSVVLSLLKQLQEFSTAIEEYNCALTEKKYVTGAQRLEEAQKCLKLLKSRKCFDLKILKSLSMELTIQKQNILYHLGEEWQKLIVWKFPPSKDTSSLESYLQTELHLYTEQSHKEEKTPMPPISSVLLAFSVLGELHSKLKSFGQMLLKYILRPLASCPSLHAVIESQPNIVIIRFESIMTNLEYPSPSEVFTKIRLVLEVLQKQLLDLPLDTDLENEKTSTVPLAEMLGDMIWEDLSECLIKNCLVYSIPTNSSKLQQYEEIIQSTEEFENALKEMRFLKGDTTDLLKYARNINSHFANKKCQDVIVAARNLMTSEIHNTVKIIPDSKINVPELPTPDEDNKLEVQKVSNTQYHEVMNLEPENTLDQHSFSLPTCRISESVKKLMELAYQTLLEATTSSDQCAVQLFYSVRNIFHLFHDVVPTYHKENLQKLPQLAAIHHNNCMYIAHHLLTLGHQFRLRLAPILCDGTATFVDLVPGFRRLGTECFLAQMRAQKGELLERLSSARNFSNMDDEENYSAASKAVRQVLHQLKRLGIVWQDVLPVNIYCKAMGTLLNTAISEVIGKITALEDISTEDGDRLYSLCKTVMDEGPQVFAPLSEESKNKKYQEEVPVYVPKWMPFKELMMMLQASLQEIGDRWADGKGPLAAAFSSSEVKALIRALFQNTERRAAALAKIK
UniProt Q9Y5A6: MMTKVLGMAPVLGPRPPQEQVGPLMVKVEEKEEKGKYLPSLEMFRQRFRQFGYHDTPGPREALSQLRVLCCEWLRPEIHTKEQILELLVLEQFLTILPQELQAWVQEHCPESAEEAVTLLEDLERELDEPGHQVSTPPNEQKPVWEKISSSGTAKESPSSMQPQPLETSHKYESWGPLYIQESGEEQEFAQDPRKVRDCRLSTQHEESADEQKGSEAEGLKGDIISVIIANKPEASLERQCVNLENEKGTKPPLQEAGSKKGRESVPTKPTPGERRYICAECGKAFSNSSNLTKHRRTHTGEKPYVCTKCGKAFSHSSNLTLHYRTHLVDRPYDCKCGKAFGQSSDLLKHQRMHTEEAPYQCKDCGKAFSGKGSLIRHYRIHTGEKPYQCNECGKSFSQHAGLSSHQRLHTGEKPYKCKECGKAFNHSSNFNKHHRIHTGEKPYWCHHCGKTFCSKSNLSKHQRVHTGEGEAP

Key:
Test in all cases: log2 fold change, soluble protein after heating vs DMSO (PISA); higher = thermal stabilisation; K562 cells, 10 uM, 30 min; active = over 0.2 and 3.5 SD of the protein, either way, in both replicates (recomputed)
[1] = biological target: ZNRD2 (UniProt G3V1B8)
Procedure, shortened: (§1)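 K562 cells at 2×10^6 cells/mL were treated for 30 min with 10 μM compound, and aliquots were heated for 3 min over 48°C-58°C before pooling. Extraction used PBS with 0.5% NP-40 at 4°C, and soluble protein was the supernatant after 21,000xg for 90 min, measured by TMTpro 16plex LC-MS/MS with channel sums equalised. Thermal stability values, relative to control samples and from duplicates, are log2 fold changes.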

[2] = biological target: ZNRD2 (UniProt O60232)
Procedure, shortened: as §1

[3] = biological target: ZNRF1 isoform 2 (UniProt Q8ND25)
Procedure, shortened: as §1

[4] = biological target: ZNRF2 (UniProt Q8NHG8)
Procedure, shortened: as §1

[5] = biological target: ZPR1 (UniProt O75312)
Procedure, shortened: as §1

[6] = biological target: ZRANB2 (UniProt O95218)
Procedure, shortened: as §1

[7] = biological target: ZSCAN26 (UniProt Q16670)
Procedure, shortened: as §1

[8] = biological target: ZSWIM7 (UniProt Q19AV6)
Procedure, shortened: as §1

[9] = biological target: ZW10 (UniProt O43264)
Procedure, shortened: as §1

[10] = biological target: ZSCAN21 (UniProt Q9Y5A6)
Procedure, shortened: as §1

SMILES	log2 fold change [1]	log2 fold change [2]	log2 fold change [3]	log2 fold change [4]	log2 fold change [5]	log2 fold change [6]	log2 fold change [7]	log2 fold change [8]	log2 fold change [9]	log2 fold change [10]
NC1(Cc2ccc(Cl)cc2)CCN(c2ncnc3[nH]ccc23)CC1	inactive: 0.037	inactive: -0.04	inactive: -0.008	inactive: -0.028	inactive: -0.016	inactive: 0.014	inactive: -0.093	inactive: 0.263	inactive: -0.062	
COC(=O)N[C@@H](C)CNc1nccc(-c2cn(C(C)C)nc2-c2cc(Cl)cc(NS(C)(=O)=O)c2F)n1 [encorafenib]		inactive: -0.018	inactive: 0.045	inactive: 0.028	inactive: 0.01	inactive: -0.066	inactive: 0.079	inactive: 0.006	inactive: 0.094	
CO[C@H]1C[C@@H]2CC[C@@H](C)[C@@](O)(O2)C(=O)C(=O)N2CCCC[C@H]2C(=O)O[C@H]([C@H](C)C[C@@H]2CC[C@H](n3cnnn3)[C@H](OC)C2)CC(=O)[C@H](C)/C=C(\C)[C@@H](O)[C@@H](OC)C(=O)[C@H](C)C[C@H](C)/C=C/C=C/C=C/1C [zotarolimus]		inactive: 0.006	inactive: -0.009	inactive: -0.055	inactive: 0.033	inactive: -0.011			inactive: 0.023	inactive: -0.071
CC(C)(O)CC(=O)NCCn1ccc2ncnc(Nc3ccc(Oc4cccc(C(F)(F)F)c4)c(Cl)c3)c21	inactive: -0.114	inactive: -0.051		inactive: 0.116	inactive: -0.005	inactive: -0.012			inactive: -0.027	inactive: 0.002
CCCCN(Cc1ccc(C(=O)NO)cc1)C(=O)Nc1ccccc1 [Nexturastat A]	inactive: 0.143	inactive: 0.002		inactive: 0.108	inactive: -0.007	inactive: -0.057			inactive: 0.093	inactive: 0.163
CN1CCN(c2nc(C3=C(c4c[nH]c5ccccc45)C(=O)NC3=O)c3ccccc3n2)CC1 [sotrastaurin]	inactive: -0.187	inactive: 0.064		inactive: 0.092	inactive: -0.015	inactive: -0.027	inactive: 0.1	inactive: -0.238	inactive: -0.089	
CCn1c(C(=O)N(C2CC2)C2CC2)cc2c3c(ncn3C)c(Nc3cc(C)n(C)n3)nc21	inactive: -0.096	inactive: -0.004	inactive: 0.047	inactive: 0.042	inactive: -0.001			inactive: 0.131		
Fc1ccc(Cl)cc1-c1nc(Nc2ccncc2)c2nccnc2n1	inactive: 0.162	inactive: 0.227		inactive: 0.018	inactive: 0.024	inactive: 0.041			inactive: -0.04	inactive: -0.439
CS(=O)(=O)c1ccc(-c2cnc(N)c(C(=O)Nc3ccccc3)n2)cc1	inactive: -0.015	inactive: 0.003		inactive: -0.102	inactive: 0.005	inactive: -0.013	inactive: 0.019	inactive: -0.105	inactive: 0.027	
CC[C@@H]1C(=O)N(C)c2cnc(Nc3ccc(C(=O)NC4CCN(C)CC4)cc3OC)nc2N1C1CCCC1		inactive: 0.018	inactive: 0	inactive: 0.036	inactive: -0.022	inactive: 0.022	inactive: -0.099	inactive: 0.104	inactive: -0.197	
Cn1cc(-c2ccc3c(c2)CCN3C(=O)Cc2cccc(C(F)(F)F)c2)c2c(N)ncnc21		inactive: 0.075	inactive: 0.1	inactive: 0.111	inactive: 0.016	inactive: -0.013			inactive: -0.076	inactive: 0.052
CS(=O)(=O)CCNCc1ccc(-c2ccc3ncnc(Nc4ccc(OCc5cccc(F)c5)c(Cl)c4)c3c2)o1 [lapatinib]		inactive: -0.024	inactive: 0.138	inactive: 0.023	inactive: -0.012	inactive: 0.018	inactive: 0.138		inactive: -0.01	
Nc1ccccc1NC(=O)c1ccc(CNC(=O)OCc2cccnc2)cc1 [entinostat]	inactive: 0.027	inactive: 0.029		inactive: -0.031	inactive: 0.019	inactive: -0.024	inactive: -0.063	inactive: -0.072	inactive: 0.063	
CC[C@@H]1C(=O)N(C)c2cnc(Nc3ccc(C(=O)N[C@H]4CC[C@H](N5CCN(CC6CC6)CC5)CC4)cc3OC)nc2N1C(C)C [volasertib]		inactive: 0.04	inactive: 0.063	inactive: 0.011	inactive: -0.069	inactive: 0.1	inactive: 0.304		active: -0.399	
Cc1cc(Nc2cc(N3CCN(C)CC3)nc(Sc3ccc(NC(=O)C4CC4)cc3)n2)n[nH]1 [tozasertib]	inactive: 0.01	inactive: 0.05	inactive: 0.16	inactive: 0.074	inactive: 0.051		inactive: -0.031	inactive: 0.225		
C[C@@H](N)c1ccc(C(=O)Nc2ccnc3[nH]ccc23)cc1		inactive: -0.061	inactive: 0.002	inactive: -0.001	inactive: -0.132	inactive: -0.043			inactive: 0.129	inactive: 0.084
c1cc(OCCN2CCCCC2)cc(-c2n[nH]c3ccc(-c4nnc[nH]4)cc23)c1		inactive: -0.064	inactive: 0.054	inactive: 0.016	inactive: -0.025	inactive: 0.021	inactive: 0.075	inactive: -0.06	inactive: -0.016	
CON(C)C(=O)N1N=C(c2cc(F)ccc2F)S[C@@]1(CCCN)c1ccccc1 [filanesib]	inactive: 0.038	inactive: 0.062		inactive: 0.085	inactive: -0.018	inactive: 0	inactive: 0.357	inactive: 0.07	inactive: 0.052	
Cn1cncc1[C@@](N)(c1ccc(Cl)cc1)c1ccc2c(c1)c(-c1cccc(Cl)c1)cc(=O)n2C [tipifarnib]		inactive: 0.002	inactive: 0.038	inactive: -0.025	inactive: -0.005	inactive: -0.001	inactive: 0.043		inactive: -0.087	
CCCS(=O)(=O)Nc1ccc(F)c(C(=O)c2c[nH]c3ncc(Cl)cc23)c1F		inactive: -0.06	inactive: -0.087	inactive: -0.054	inactive: 0.016	inactive: -0.02	inactive: -0.107		inactive: 0.053	
NC(=O)Nc1cc(-c2cccc(F)c2)sc1C(=O)N[C@H]1CCCNC1	inactive: 0.141	inactive: -0.048		inactive: -0.033	inactive: -0.013	inactive: 0.076	inactive: -0.032	inactive: -0.201	inactive: -0.021	
C[C@@H]1COCCN1c1cc(C2(S(C)(=O)=O)CC2)nc(-c2cccc3[nH]ccc23)n1	inactive: 0.08	inactive: 0.094		inactive: -0.012	inactive: -0.002	inactive: 0.001			inactive: -0.029	inactive: -0.281
CC(C)C[C@@H](C=O)NC(=O)[C@H](CC(C)C)NC(=O)[C@H](CC(C)C)NC(=O)OCc1ccccc1 (Cbz-Leu-Leu-Leu-aldehyde)	inactive: 0	inactive: -0.033	inactive: 0.114	inactive: 0.038	inactive: -0.006	inactive: -0.027			inactive: 0.007	
CN(CCOc1ccc(C[C@@H]2SC(=O)NC2=O)cc1)c1ccccn1 (racemic) [rosiglitazone]	inactive: -0.043	inactive: 0.005	inactive: -0.136	inactive: -0.009	inactive: 0.017			inactive: -0.057		
C[C@H](Nc1ncnc2nc[nH]c12)c1cc2cccc(Cl)c2c(=O)n1-c1ccccc1 [duvelisib]		inactive: 0.162	inactive: 0.073	inactive: 0.086	inactive: 0.001					
O=C1NC(=O)C(c2cnc3ccccn23)=C1c1cn2c3c(cc(F)cc13)CN(C(=O)N1CCCCC1)CC2	inactive: -0.286	inactive: -0.053		inactive: -0.162	inactive: -0.045	inactive: 0.12			inactive: 0.054	inactive: 0.07
CC[C@H](C)[C@H](NC(=O)[C@H]([C@@H](C)CC)N(C)C(C)=O)C(=O)N[C@H](C(=O)N[C@@H](CC(C)C)C(=O)[C@@]1(C)CO1)[C@@H](C)O [epoxomicin]	inactive: 0.199	inactive: 0.25		inactive: -0.03	inactive: 0.012	inactive: -0.016			inactive: -0.046	inactive: -0.163
O=C(CCCCCCNC(=O)c1cnc(N(c2ccccc2)c2ccccc2Cl)nc1)NO [citarinostat]		inactive: -0.041	inactive: 0.14	inactive: -0.054	inactive: 0.038	inactive: -0.031	inactive: 0	inactive: 0.042	inactive: 0.033	
COc1cc2nc(-c3cc(F)ccc3O)nc(N[C@@H]3CNC[C@H]3C(C)(C)O)c2cc1OC		inactive: -0.062	inactive: -0.089	inactive: 0.094	inactive: 0.049	inactive: -0.006	inactive: -0.315		inactive: 0.041	
CNCc1ccc(-c2[nH]c3cc(F)cc4c3c2CCNC4=O)cc1 [rucaparib]		inactive: 0.039	inactive: 0.115	inactive: -0.018	inactive: -0.01	inactive: -0.034	inactive: 0.269	inactive: 0.048	inactive: 0.128	

Fetched by compound from the entries so far, 2 records:
SMILES	log2 fold change [1]	log2 fold change [2]	log2 fold change [3]	log2 fold change [4]	log2 fold change [5]	log2 fold change [6]	log2 fold change [7]	log2 fold change [8]	log2 fold change [9]	log2 fold change [10]
C[C@H](Nc1ncnc2nc[nH]c12)c1cc2cccc(Cl)c2c(=O)n1-c1ccccc1 [duvelisib]		inactive: 0.162	inactive: 0.073	inactive: 0.086	inactive: 0.001					
c1cc(OCCN2CCCCC2)cc(-c2n[nH]c3ccc(-c4nnc[nH]4)cc23)c1		inactive: -0.064	inactive: 0.054	inactive: 0.016	inactive: -0.025	inactive: 0.021	inactive: 0.075	inactive: -0.06	inactive: -0.016	
